# The list shows only some results of the screen, not a fair sample: it gathers tests that were run many times, whatever their T/C, doses with no T/C, and many T/C values between a quarter and a half above the control. Further doses and runs are listed elsewhere. T/C is the treated group as % of the vehicle group. Some entries give survivors of the animals treated and no T/C: the source files T/C as zero there, which appears to mark a toxic dose or a test without result, not a measured value. Some doses without a T/C left all or most animals alive at the check, yet need not have been tolerated: survival well below the control is almost never listed, so the zero probably covers shortened survival too. Counts of survivors are from the toxicity check (mostly the fifth day) where no day follows; animals may have died later. Schedules are NCI's codes, read here as Q, the interval in days (D) or hours (H), X, the number of doses. For survival time, this PubChem deposit counts one and a half times the control or more as active, and values a quarter to a half above the control carry no call in these data; other NCI protocols may use other cut-offs. Some T/C values are followed by the survivors on the day toxicity was checked, most often the fifth; where none is given, no animal had died by that day. Some entries were tested several times; their values stand side by side, smallest first. Additions like (4×) say how often a value occurs here.
# Tested on: L1210 leukemia ip in BDF1 mice, survival T/C
# Experiment: NCI In Vivo Anticancer Drug Screen. Data for tumor model L1210 Leukemia (intraperitoneal) in B6D2F1 (BDF1) mice
# Details: T/C endpoint: median survival time, higher T/C = longer survival
# [1] = dose: 128.0 mg/kg/injection, schedule: Q01DX009 (oral), vehicle: saline with Tween-80
smiles,measurement,setting,value
CC(CN1CC(=O)NC(=O)C1)N1CC(=O)NC(=O)C1 (configuration not stated),T/C,"dose: 64.0 mg/kg/injection, schedule: Q04DX003 (ip), vehicle: saline with Tween-80",129 % of control
same,T/C,"dose: 64.0 mg/kg/injection, schedule: Q04DX003 (sc), vehicle: saline with Tween-80",129 % of control
same,survivor count,"dose: 75.0 mg/kg/injection, schedule: Q03HX024 (ip), vehicle: Klucel (hydroxypropylcellulose) (HPC)",8 of 8
same,T/C,"dose: 100.0 mg/kg/injection, schedule: Q01DX001 (ip), vehicle: Klucel (hydroxypropylcellulose) (HPC), evaluated on day 5","110 (2×), 113, 116, 118, 122 % of control"
same,T/C,"dose: 100.0 mg/kg/injection, schedule: Q01DX001 (ip), vehicle: Klucel (hydroxypropylcellulose) (HPC), evaluated on day 30",111 (2×) and 125 % of control
same,T/C,"dose: 100.0 mg/kg/injection, schedule: Q01DX001 (ip), vehicle: Klucel (hydroxypropylcellulose) (HPC), evaluated on day 60",111 % of control
same,T/C,"dose: 100.0 mg/kg/injection, schedule: Q01DX001 (ip), vehicle: Klucel (hydroxypropylcellulose) (HPC), evaluated on day 75",122 % of control
same,T/C,"dose: 100.0 mg/kg/injection, schedule: Q01DX001 (ip), vehicle: other",147 % of control
same,T/C,"dose: 100.0 mg/kg/injection, schedule: Q01DX001 (ip), vehicle: steroid suspending solution",138 % of control
same,T/C,"dose: 100.0 mg/kg/injection, schedule: Q04DX003 (ip), vehicle: Klucel (hydroxypropylcellulose) (HPC), evaluated on day 5","102, 111, 112, 114, 122, 125, 139, 141, 145, 149, 182 % of control"
same,T/C,"dose: 100.0 mg/kg/injection, schedule: Q04DX003 (ip), vehicle: Klucel (hydroxypropylcellulose) (HPC), evaluated on day 7",99 and 117 % of control
same,T/C,"dose: 100.0 mg/kg/injection, schedule: Q04DX003 (ip), vehicle: Klucel (hydroxypropylcellulose) (HPC), evaluated on day 30",100 [7 of 8 alive] and 139 % of control
same,T/C,"dose: 100.0 mg/kg/injection, schedule: Q04DX003 (ip), vehicle: Klucel (hydroxypropylcellulose) (HPC), evaluated on day 32",120 % of control
same,T/C,"dose: 100.0 mg/kg/injection, schedule: Q04DX003 (ip), vehicle: Klucel (hydroxypropylcellulose) (HPC), evaluated on day 46",105 % of control
same,T/C,"dose: 100.0 mg/kg/injection, schedule: Q04DX003 (ip), vehicle: Klucel (hydroxypropylcellulose) (HPC), evaluated on day 50",112 % of control
same,T/C,"dose: 100.0 mg/kg/injection, schedule: Q04DX003 (ip), vehicle: Klucel (hydroxypropylcellulose) (HPC), evaluated on day 54",144 % of control
same,T/C,"dose: 100.0 mg/kg/injection, schedule: Q04DX003 (ip), vehicle: Klucel (hydroxypropylcellulose) (HPC), evaluated on day 60","110, 111, 125, 133, 183 % of control [7 of 8 alive]"
same,T/C,"dose: 100.0 mg/kg/injection, schedule: Q04DX003 (ip), vehicle: Klucel (hydroxypropylcellulose) (HPC), evaluated on day 75",144 % of control
same,T/C,"dose: 108.0 mg/kg/injection, schedule: Q04DX003 (ip), vehicle: Klucel (hydroxypropylcellulose) (HPC), evaluated on day 5","114, 115, 131 % of control"
same,T/C,"dose: 108.0 mg/kg/injection, schedule: Q04DX003 (ip), vehicle: Klucel (hydroxypropylcellulose) (HPC), evaluated on day 7",114 % of control
same,T/C,"dose: 108.0 mg/kg/injection, schedule: Q04DX003 (ip), vehicle: Klucel (hydroxypropylcellulose) (HPC), evaluated on day 24",116 % of control
same,T/C,"dose: 108.0 mg/kg/injection, schedule: Q04DX003 (ip), vehicle: Klucel (hydroxypropylcellulose) (HPC), evaluated on day 27",133 % of control
same,T/C,"dose: 108.0 mg/kg/injection, schedule: Q04DX003 (ip), vehicle: Klucel (hydroxypropylcellulose) (HPC), evaluated on day 30",110 % of control
same,T/C,"dose: 108.0 mg/kg/injection, schedule: Q04DX003 (ip), vehicle: Klucel (hydroxypropylcellulose) (HPC), evaluated on day 33",122 % of control
same,T/C,"dose: 108.0 mg/kg/injection, schedule: Q04DX003 (ip), vehicle: Klucel (hydroxypropylcellulose) (HPC), evaluated on day 34",131 % of control
same,T/C,"dose: 108.0 mg/kg/injection, schedule: Q04DX003 (ip), vehicle: Klucel (hydroxypropylcellulose) (HPC), evaluated on day 46",111 % of control
same,T/C,[1],87 and 92 % of control
same,survivor count,[1],10 of 10
same,survivor count,"dose: 128.0 mg/kg/injection, schedule: Q03HX008 (ip), vehicle: saline with Tween-80",7 of 10
same,survivor count,"dose: 128.0 mg/kg/injection, schedule: Q03HX016 (ip), vehicle: saline with Tween-80",8 of 10
same,survivor count,"dose: 128.0 mg/kg/injection, schedule: Q03HX024 (ip), vehicle: saline with Tween-80",9 of 10
same,T/C,"dose: 128.0 mg/kg/injection, schedule: Q04DX003 (sc), vehicle: saline with Tween-80",144 % of control
same,T/C,"dose: 164.0 mg/kg/injection, schedule: Q04DX003 (ip), vehicle: Klucel (hydroxypropylcellulose) (HPC), evaluated on day 5",142 % of control
same,T/C,"dose: 164.0 mg/kg/injection, schedule: Q04DX003 (ip), vehicle: Klucel (hydroxypropylcellulose) (HPC), evaluated on day 7",133 % of control
same,T/C,"dose: 164.0 mg/kg/injection, schedule: Q04DX003 (ip), vehicle: Klucel (hydroxypropylcellulose) (HPC), evaluated on day 35",133 % of control
same,T/C,"dose: 164.0 mg/kg/injection, schedule: Q04DX003 (ip), vehicle: Klucel (hydroxypropylcellulose) (HPC), evaluated on day 60",144 % of control
same,T/C,"dose: 180.0 mg/kg/injection, schedule: Q04DX003 (ip), vehicle: Klucel (hydroxypropylcellulose) (HPC), evaluated on day 5","124, 148, 159, 162 % of control"
same,T/C,"dose: 180.0 mg/kg/injection, schedule: Q04DX003 (ip), vehicle: Klucel (hydroxypropylcellulose) (HPC), evaluated on day 7",117 % of control
same,T/C,"dose: 180.0 mg/kg/injection, schedule: Q04DX003 (ip), vehicle: Klucel (hydroxypropylcellulose) (HPC), evaluated on day 24",116 % of control
same,T/C,"dose: 180.0 mg/kg/injection, schedule: Q04DX003 (ip), vehicle: Klucel (hydroxypropylcellulose) (HPC), evaluated on day 27",155 % of control
same,T/C,"dose: 180.0 mg/kg/injection, schedule: Q04DX003 (ip), vehicle: Klucel (hydroxypropylcellulose) (HPC), evaluated on day 30",150 % of control
same,T/C,"dose: 180.0 mg/kg/injection, schedule: Q04DX003 (ip), vehicle: Klucel (hydroxypropylcellulose) (HPC), evaluated on day 33",150 % of control
same,T/C,"dose: 180.0 mg/kg/injection, schedule: Q04DX003 (ip), vehicle: Klucel (hydroxypropylcellulose) (HPC), evaluated on day 34",162 % of control
same,T/C,"dose: 180.0 mg/kg/injection, schedule: Q04DX003 (ip), vehicle: Klucel (hydroxypropylcellulose) (HPC), evaluated on day 46",122 % of control
same,T/C,"dose: 180.0 mg/kg/injection, schedule: Q04DX003 (ip), vehicle: Klucel (hydroxypropylcellulose) (HPC), evaluated on day 60",147 % of control
same,T/C,"dose: 200.0 mg/kg/injection, schedule: Q01DX001 (ip), vehicle: Klucel (hydroxypropylcellulose) (HPC), evaluated on day 5","128 (2×), 132, 141 (2×), 146 % of control"
same,T/C,"dose: 200.0 mg/kg/injection, schedule: Q01DX001 (ip), vehicle: Klucel (hydroxypropylcellulose) (HPC), evaluated on day 30",127 (2×) and 150 % of control
same,T/C,"dose: 200.0 mg/kg/injection, schedule: Q01DX001 (ip), vehicle: Klucel (hydroxypropylcellulose) (HPC), evaluated on day 60",144 % of control
same,T/C,"dose: 200.0 mg/kg/injection, schedule: Q01DX001 (ip), vehicle: Klucel (hydroxypropylcellulose) (HPC), evaluated on day 75",144 % of control
same,T/C,"dose: 200.0 mg/kg/injection, schedule: Q01DX001 (ip), vehicle: other",133 % of control
same,T/C,"dose: 200.0 mg/kg/injection, schedule: Q01DX001 (ip), vehicle: steroid suspending solution",133 % of control
same,T/C,"dose: 200.0 mg/kg/injection, schedule: Q04DX003 (ip), vehicle: Klucel (hydroxypropylcellulose) (HPC), evaluated on day 5","117, 125, 141, 159, 164, 181, 184, 206, 207, 220, 221 % of control"
same,T/C,"dose: 200.0 mg/kg/injection, schedule: Q04DX003 (ip), vehicle: Klucel (hydroxypropylcellulose) (HPC), evaluated on day 7",117 and 171 % of control
same,T/C,"dose: 200.0 mg/kg/injection, schedule: Q04DX003 (ip), vehicle: Klucel (hydroxypropylcellulose) (HPC), evaluated on day 30",117 and 159 % of control
same,T/C,"dose: 200.0 mg/kg/injection, schedule: Q04DX003 (ip), vehicle: Klucel (hydroxypropylcellulose) (HPC), evaluated on day 32",170 % of control
same,T/C,"dose: 200.0 mg/kg/injection, schedule: Q04DX003 (ip), vehicle: Klucel (hydroxypropylcellulose) (HPC), evaluated on day 46",130 % of control
same,T/C,"dose: 200.0 mg/kg/injection, schedule: Q04DX003 (ip), vehicle: Klucel (hydroxypropylcellulose) (HPC), evaluated on day 50",220 % of control
same,T/C,"dose: 200.0 mg/kg/injection, schedule: Q04DX003 (ip), vehicle: Klucel (hydroxypropylcellulose) (HPC), evaluated on day 54",144 % of control
same,T/C,"dose: 200.0 mg/kg/injection, schedule: Q04DX003 (ip), vehicle: Klucel (hydroxypropylcellulose) (HPC), evaluated on day 60","116, 160, 181, 205, 211 % of control"
same,T/C,"dose: 200.0 mg/kg/injection, schedule: Q04DX003 (ip), vehicle: Klucel (hydroxypropylcellulose) (HPC), evaluated on day 75",227 % of control
same,T/C,"dose: 205.0 mg/kg/injection, schedule: Q04DX003 (ip), vehicle: Klucel (hydroxypropylcellulose) (HPC), evaluated on day 5",156 % of control
same,T/C,"dose: 205.0 mg/kg/injection, schedule: Q04DX003 (ip), vehicle: Klucel (hydroxypropylcellulose) (HPC), evaluated on day 7",139 % of control

# — PubChem BioAssay AID248 (DTP/NCI, 2004)
